# From the supplement of paper PMC12823440, “Inhibitors supercharge kinase turnover through native proteolytic circuits” (Nature, 2025)
# Chains of the proteins cited; added tags and fusions are not shown. Lines headed by an entry give the natural chain unless they say otherwise; changes in a name come on top.
# UniProt P07947, whole entry, looked up: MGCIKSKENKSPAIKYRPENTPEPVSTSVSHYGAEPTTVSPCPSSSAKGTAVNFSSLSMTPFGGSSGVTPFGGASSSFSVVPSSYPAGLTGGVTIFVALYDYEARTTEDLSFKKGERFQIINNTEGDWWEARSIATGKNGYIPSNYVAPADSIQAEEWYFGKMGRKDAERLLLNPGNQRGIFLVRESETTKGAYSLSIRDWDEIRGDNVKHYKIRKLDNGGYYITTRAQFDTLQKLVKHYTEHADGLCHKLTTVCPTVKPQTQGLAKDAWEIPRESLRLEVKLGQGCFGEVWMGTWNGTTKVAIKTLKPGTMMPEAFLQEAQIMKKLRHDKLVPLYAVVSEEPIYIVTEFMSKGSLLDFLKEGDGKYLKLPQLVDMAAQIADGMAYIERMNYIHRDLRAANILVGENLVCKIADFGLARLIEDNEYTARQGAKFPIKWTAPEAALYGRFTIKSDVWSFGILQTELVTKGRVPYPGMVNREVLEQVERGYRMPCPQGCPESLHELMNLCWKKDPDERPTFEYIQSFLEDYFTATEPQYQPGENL
# UniProt P43403: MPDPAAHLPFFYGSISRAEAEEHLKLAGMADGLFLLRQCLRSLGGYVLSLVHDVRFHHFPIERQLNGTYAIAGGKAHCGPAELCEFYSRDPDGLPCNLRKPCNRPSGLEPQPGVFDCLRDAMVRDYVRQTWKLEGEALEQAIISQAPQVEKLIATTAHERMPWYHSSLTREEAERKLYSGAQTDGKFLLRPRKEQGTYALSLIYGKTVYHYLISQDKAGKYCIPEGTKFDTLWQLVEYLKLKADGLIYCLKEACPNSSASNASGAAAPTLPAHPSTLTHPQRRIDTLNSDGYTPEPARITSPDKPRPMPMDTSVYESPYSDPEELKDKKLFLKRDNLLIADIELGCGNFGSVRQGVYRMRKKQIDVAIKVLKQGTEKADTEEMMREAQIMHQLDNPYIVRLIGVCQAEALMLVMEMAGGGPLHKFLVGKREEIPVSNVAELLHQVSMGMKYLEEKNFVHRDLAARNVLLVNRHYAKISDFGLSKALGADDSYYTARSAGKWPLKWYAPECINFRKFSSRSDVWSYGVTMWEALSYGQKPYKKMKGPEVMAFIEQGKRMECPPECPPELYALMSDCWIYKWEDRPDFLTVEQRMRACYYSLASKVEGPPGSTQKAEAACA
# UniProt P11802: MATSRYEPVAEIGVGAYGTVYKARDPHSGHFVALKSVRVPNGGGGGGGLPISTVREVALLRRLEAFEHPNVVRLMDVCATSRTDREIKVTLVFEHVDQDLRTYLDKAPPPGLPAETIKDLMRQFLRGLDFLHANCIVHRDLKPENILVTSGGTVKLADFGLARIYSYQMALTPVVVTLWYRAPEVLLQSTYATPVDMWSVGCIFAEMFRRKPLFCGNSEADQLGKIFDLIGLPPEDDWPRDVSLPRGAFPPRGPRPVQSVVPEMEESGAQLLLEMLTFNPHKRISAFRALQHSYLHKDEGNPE
# UniProt P50613: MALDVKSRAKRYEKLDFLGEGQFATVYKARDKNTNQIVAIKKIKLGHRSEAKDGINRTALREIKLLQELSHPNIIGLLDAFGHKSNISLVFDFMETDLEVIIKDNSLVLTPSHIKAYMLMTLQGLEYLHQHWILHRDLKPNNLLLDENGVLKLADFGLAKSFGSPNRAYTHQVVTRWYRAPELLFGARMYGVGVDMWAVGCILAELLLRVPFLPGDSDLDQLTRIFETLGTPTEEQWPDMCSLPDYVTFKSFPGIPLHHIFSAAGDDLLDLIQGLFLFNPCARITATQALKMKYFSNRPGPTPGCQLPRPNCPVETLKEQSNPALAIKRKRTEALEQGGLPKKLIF
# UniProt P50750, whole entry: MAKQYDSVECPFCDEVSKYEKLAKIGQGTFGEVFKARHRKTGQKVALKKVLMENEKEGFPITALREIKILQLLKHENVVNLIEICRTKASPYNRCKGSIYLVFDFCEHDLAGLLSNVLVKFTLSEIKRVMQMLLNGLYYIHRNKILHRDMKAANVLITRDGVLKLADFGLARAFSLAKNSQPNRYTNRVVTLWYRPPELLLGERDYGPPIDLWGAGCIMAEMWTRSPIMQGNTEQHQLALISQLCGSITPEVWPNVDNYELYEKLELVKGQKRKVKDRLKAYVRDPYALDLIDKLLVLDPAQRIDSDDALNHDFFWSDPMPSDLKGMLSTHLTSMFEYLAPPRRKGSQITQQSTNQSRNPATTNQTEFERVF
# Counter-ions that a name gives are not always drawn. This is one part of the list. The calls rarely recur for the same compound in another form.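 In K562 cells expressing nanoluciferase-fused kinases, luminescence was recorded at 4 h intervals between 2 and 18 h, normalized as percent of control with DMSO at 100% and a positive control at 0%. A significant (2 sigma) signal drop marks a time point as decreased. The authors' rule for a hit is not shown and takes in more than the number of time points.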
# Tests used:
# Conditions in all cases: K562; 2-18 h
# YES1 = YES1 (UniProt P07947); test: number of time points (of 5) at which kinase-Nluc abundance scored as decreased, DMSO-normalised (count); higher = more persistent destabilization
# ZAK = ZAK (UniProt Q9NYL2); test: as above
# ZAP70 = ZAP70 (UniProt P43403); test: as above
# CDK4 = CDK4 (UniProt P11802); test: number of time points (of 4; 2 h point missing) at which kinase-Nluc abundance scored as decreased, DMSO-normalised (count); higher = more persistent destabilization
# CDK7 = CDK7 (UniProt P50613); test: as above
# CDK9 = CDK9 (UniProt P50750); test: as above
Structure (SMILES),number of time points (YES1),number of time points (ZAK),number of time points (ZAP70),number of time points (CDK4),number of time points (CDK7),number of time points (CDK9)
O=S(=O)(c1cccc2cnccc12)N1CCNCC1 (10 µM),0,0,0,0,0,0
COc1cc(N2CCC(N3CCN(C)CC3)CC2)ccc1Nc1nc2c(c(Nc3ccccc3S(=O)(=O)NC(C)C)n1)CCN2 [Conteltinib] (10 µM),0,0,0,0,0,0
Oc1ccccc1C(=S)N1CCCC1 (10 µM),0,0,0,0,0,0
Cc1cc(Nc2cc(CN3CCOCC3)c3nc(C)c(Cc4ccc(Cl)cc4F)n3n2)n[nH]1 [Gandotinib] (2.5 µM),0,0,0,0,0,0
O=C1NC(=O)C(c2cn(-c3ccccc3)nc2-c2ccc(F)cc2)N1 (stereo unspecified) (10 µM),0,0,0,0,0,0
CCCCOc1ccc(CC/C=C2\SC(=O)N(CCN)C2=O)cc1 [K145 (hydrochloride)] (2.5 µM),0,0,0,0,0,0
O=C(O)c1ccccc1Nc1cccc(C(F)(F)F)c1 [Flufenamic acid] (10 µM),0,0,0,0,0,4
Cn1cc(-c2ccc3nnc(C(F)(F)c4ccc5ncccc5c4)n3n2)cn1 (10 µM),0,0,0,0,0,0
C[C@@H]1O[C@@H](OC[C@H]2O[C@@H](Oc3cc(O)c4c(c3)O[C@H](c3ccc(O)cc3)CC4=O)[C@H](O)[C@@H](O)[C@@H]2O)[C@H](O)[C@H](O)[C@H]1O [Narirutin] (10 µM),0,0,0,0,0,0
COc1cc2ncnc(Nc3ccc(NC(=O)c4ccccc4)cc3)c2cc1OC [Aurora kinase inhibitor-2] (2.5 µM),0,0,0,0,0,0
O=C(O)c1ccc(N2N=C(Cc3ccccc3)C(=Cc3ccc(-c4ccccc4F)o3)C2=O)cc1 (10 µM),0,0,0,0,0,0
CN(C)c1ncnc2nc[nH]c12 [6-(Dimethylamino)purine] (10 µM),0,0,0,0,0,0
O=C(O)c1cc(O)c2c(c1)[C@@H]([C@H]1c3cc(C(=O)O)cc(O)c3C(=O)c3c(O[C@@H]4O[C@H](CO)[C@@H](O)[C@H](O)[C@H]4O)cccc31)c1cccc(O[C@@H]3O[C@H](CO)[C@@H](O)[C@H](O)[C@H]3O)c1C2=O [Sennoside B] (2.5 µM),0,0,0,0,0,0
COc1c(O)cc2oc3cc(O)c(CC=C(C)C)c(O)c3c(=O)c2c1CCC(C)(C)O [Garcinone D] (2.5 µM),0,0,0,0,0,0
COc1cc(-c2cc(-c3cc(OC)c(OC)c(OC)c3)cc(C(F)P(=O)(OCOC(=O)C(C)(C)C)OCOC(=O)C(C)(C)C)c2)cc(OC)c1OC (stereo unspecified) [Stafia-1-dipivaloyloxymethyl ester] (2.5 µM),0,0,0,0,0,0
CN(C)Cc1cccc(N=C(c2ccccc2)c2c(O)[nH]c3cc(C(N)=O)ccc23)c1 (10 µM),0,0,0,0,0,0
C[C@@H]1COCCN1c1cc(C2([S@](C)(=N)=O)CC2)nc(-c2cc[nH]c3nccc2-3)n1 [Ceralasertib] (2.5 µM),0,0,0,0,0,0
CC(C)N(C)c1nc2cc(C(=O)O)ccc2nc1-c1ccc(F)cc1 (10 µM),0,0,0,0,0,0
CCC(C)(C)C(=O)N(O)Cc1ccccc1 (10 µM),0,0,0,0,0,0
COC(=O)[C@@]1(C)CC[C@]2(C(=O)O)CC[C@]3(C)C(=CC[C@@H]4[C@@]5(C)C[C@H](O)[C@H](O[C@@H]6OC[C@@H](O[C@@H]7O[C@H](CO)[C@@H](O)[C@H](O)[C@H]7O)[C@H](O)[C@H]6O)[C@@](C)(CO)[C@@H]5CC[C@]43C)[C@@H]2C1 [Esculentoside A] (10 µM),0,0,0,0,0,0
CC1(N)CCN(c2cnc3c(-c4cccc(Cl)c4Cl)[nH]nc3n2)CC1 (2.5 µM),0,0,0,0,0,0
CC[C@@H](N)CNc1ccnc(-c2cc(-c3cnn(C)c3)ccc2O)n1 (2.5 µM),0,0,0,0,0,0
COc1ncc(Nc2ncc([C@@H](C)N3CCN(S(C)(=O)=O)CC3)cc2-c2nc(C)nc(N)n2)cc1F (10 µM),0,0,0,0,0,0

# Some of the entries so far, tab-delimited.
Structure (SMILES)	number of time points (YES1)	number of time points (ZAK)	number of time points (ZAP70)	number of time points (CDK4)	number of time points (CDK7)	number of time points (CDK9)
COc1cc2ncnc(Nc3ccc(NC(=O)c4ccccc4)cc3)c2cc1OC [Aurora kinase inhibitor-2] (2.5 µM)	0	0	0	0	0	0
O=C(O)c1ccc(N2N=C(Cc3ccccc3)C(=Cc3ccc(-c4ccccc4F)o3)C2=O)cc1 (10 µM)	0	0	0	0	0	0
CN(C)c1ncnc2nc[nH]c12 [6-(Dimethylamino)purine] (10 µM)	0	0	0	0	0	0

# (further entries)

Structure (SMILES),number of time points (YES1),number of time points (ZAK),number of time points (ZAP70),number of time points (CDK4),number of time points (CDK7),number of time points (CDK9)
Cc1cc(C(C)Nc2ccccc2)c2nc(N3CCOCC3)cc(=O)n2c1 (stereo unspecified) (10 µM),0,0,0,0,0,0
CC(C)c1cc(/C=C(\C#N)C(N)=O)cc(C(C)C)c1O (10 µM),0,0,0,0,0,0
C=CC(=O)N1CCC[C@@H](n2nc(C(=O)Nc3ccc(CC(=O)N(C)C)c(C)c3C)c3c(N)ncnc32)C1 (10 µM),0,0,0,0,0,0
CCN(C)C(=O)c1ccc2c(C(=Nc3ccc(CN4CCCCC4)cc3)c3ccccc3)c(O)[nH]c2c1 (2.5 µM),0,0,0,0,0,0
CC(C)c1cnn2c(NCc3ccccc3-n3cccn3)nc(OC3CCCNC3)nc12 (stereo unspecified) (2.5 µM),0,0,0,0,0,1
CN(C)c1nc2c(Br)c(Br)c(Br)c(Br)c2n1CC(=O)O (10 µM),0,0,0,0,0,0
COc1cc(C(C)=O)cc(OC)c1O [Acetosyringone] (10 µM),0,0,0,0,0,0
COc1cc(N2CCC(N(C)C)CC2)ccc1Nc1ncc(Cl)c(Nc2ccccc2P(C)(C)=O)n1 (2.5 µM),0,0,0,0,1,0
CN(C)C(=O)c1ccc(S(=O)(=O)c2ccc(NC(=O)[C@@](C)(O)C(F)(F)F)c(Cl)c2)cc1 (10 µM),0,0,0,0,0,0
CCN1/C(=C/C(C)=O)Sc2ccc(OC)cc21 (10 µM),2,1,0,0,0,1
Nc1nc2cc(-c3ccc4ncc(C(=O)N5CCOCC5)n4c3)ccc2o1 [Serabelisib] (10 µM),0,0,0,0,0,0
CC[C@H](C)[C@H](NC(=O)[C@H](CCC(=O)O)NC(=O)[C@H](CCCN=C(N)N)NC(=O)[C@H](CCCN=C(N)N)NC(=O)[C@@H](N)CCCCN)C(=O)N[C@@H](CC(C)C)C(=O)N[C@@H](CO)C(=O)N[C@@H](CCCN=C(N)N)C(=O)N[C@@H](CCCN=C(N)N)C(=O)N1CCC[C@H]1C(=O)N[C@@H](CO)C(=O)N[C@@H](Cc1ccc(O)cc1)C(=O)N[C@@H](CCCN=C(N)N)C(=O)O [CREBtide] (10 µM),0,0,0,0,0,0
CCCNC(=O)c1cn2ncnc(Nc3cc(C(=O)NC4CC4)ccc3C)c2c1C (10 µM),0,0,0,0,0,0
Cn1ncc(Cl)c1-c1cc(C(=O)N[C@H](CN)Cc2ccc(F)c(F)c2)sc1Cl (10 µM),0,0,0,0,0,0
CN(C)Cc1cccc(N=C(c2ccccc2)c2c(O)[nH]c3cc(C(=O)N(C)C)ccc23)c1 (10 µM),0,0,0,0,0,0
CN1CCN(CCCNc2ncc(Cl)c(-c3cc4c(C(=O)NC5CC5)cccc4s3)n2)CC1 (10 µM),0,0,0,0,0,0
C[C@H]1[C@H](OC(=O)CCC(=O)O)O[C@@H]2O[C@@]3(C)CC[C@H]4[C@H](C)CC[C@@H]1[C@@]24OO3 [Artesunate] (2.5 µM),1,0,0,0,1,0
C=CC(=O)Nc1cccc(Oc2nc(Nc3ccc(N4CCN(C)CC4)cc3)nc3ccoc23)c1 [Poseltinib] (10 µM),0,0,0,0,0,0
NS(=O)(=O)c1ccc(N2N=C(c3ccccc3)CC2c2ccccc2)cc1 (stereo unspecified) (10 µM),0,0,0,0,0,0
c1ccc(-c2nn3c(c2-c2ccnc4cc(OCCN5CCOCC5)ccc24)CCC3)nc1 (10 µM),0,0,0,0,0,0
C=CS(=O)(=O)c1ccc(Nc2nc(OCC3CCCCC3)c3[nH]cnc3n2)cc1 (2.5 µM),0,0,0,0,0,0
CC1=C(CC(=O)O)c2cc(F)ccc2/C1=C\c1ccc(C(C)C)cc1 (10 µM),0,0,0,0,0,0
CC(=O)Nc1nc2ccc(-c3cnc(C)c(NC(=O)OC4CCCCC4)c3)cc2s1 (10 µM),0,0,0,0,0,0
